At least one compound was matched to its structure with a doubt left.
System: Candida albicans
Assay: Culture and sensitivity, Patient 7
Format: cell-based
Details: culture from Patient 7
Description: The patient underwent the standard workup for CRS, sleep disorder, and nasal obstruction, plus our diagnostic skin test and sinus CT scan.

For `CCC(C)n1ncn(-c2ccc(N3CCN(c4ccc(OCC5COC(Cn6cncn6)(c6ccc(Cl)cc6Cl)O5)cc4)CC3)cc2)c1=O` (stereo not shown) [Itraconazole], the “Sensitivity of cultured Candida albicans” value was “sensitive”.

Reference: patent US20180050033A1, “ANTIFUNGAL TREATMENT OF RHEUMATOID ARTHRITIS” (Gerbe Labs Inc., priority 2016, published 2018)
